No constants are given. Whether binding was seen depends on the method and setting. Binding seen in cells or lysates may run through a third protein. Some binding calls cover weakened binding; strength is not graded here.
Target: glucocorticoid receptor alpha (human (endogenous in primary HBECs)) (UniProt P04150)
Experiment: co-IP; 200 μg protein from primary HBECs; IP with 2 μg anti-GRα or anti-MUC1-CT (IgG isotype control), protein G Sepharose 4B overnight at 4 °C, washed with NET buffer (50 mM Tris-HCl pH 8.0, 150 mM NaCl, 0.1% Nonidet P-40); western blot with anti-GRα or anti-MUC1-CT; cells stimulated with different concentrations of CSE, or with dexamethasone for 4 h

Protein sequences, listed by entry. Tags and fused reporters are not part of them. Residues count along the entry.
UniProt P04150: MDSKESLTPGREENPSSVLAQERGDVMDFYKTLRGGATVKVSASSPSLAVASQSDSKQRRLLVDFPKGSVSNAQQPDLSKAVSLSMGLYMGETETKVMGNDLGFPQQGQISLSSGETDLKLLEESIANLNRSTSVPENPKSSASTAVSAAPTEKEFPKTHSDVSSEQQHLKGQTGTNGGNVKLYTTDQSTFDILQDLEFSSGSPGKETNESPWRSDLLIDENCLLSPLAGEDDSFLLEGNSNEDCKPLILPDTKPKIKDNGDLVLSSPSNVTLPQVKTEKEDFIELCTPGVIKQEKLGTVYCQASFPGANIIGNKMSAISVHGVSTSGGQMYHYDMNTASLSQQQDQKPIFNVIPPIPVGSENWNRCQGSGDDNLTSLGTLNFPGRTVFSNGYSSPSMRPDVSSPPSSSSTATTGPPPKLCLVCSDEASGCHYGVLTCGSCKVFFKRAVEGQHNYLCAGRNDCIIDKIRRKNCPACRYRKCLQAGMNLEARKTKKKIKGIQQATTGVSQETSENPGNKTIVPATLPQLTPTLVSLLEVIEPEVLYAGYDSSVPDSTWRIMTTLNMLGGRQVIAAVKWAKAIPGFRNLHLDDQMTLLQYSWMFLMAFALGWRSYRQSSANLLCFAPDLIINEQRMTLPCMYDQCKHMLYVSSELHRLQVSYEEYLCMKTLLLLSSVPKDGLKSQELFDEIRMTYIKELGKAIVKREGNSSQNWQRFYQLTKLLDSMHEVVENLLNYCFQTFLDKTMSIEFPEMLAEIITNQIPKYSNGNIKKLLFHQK
UniProt P15941, residues 1182-1255: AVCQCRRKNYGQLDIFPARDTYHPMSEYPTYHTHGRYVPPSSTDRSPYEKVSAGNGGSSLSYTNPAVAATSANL

binding: binds
Substance: Mucin 1 cytoplasmic tail (from UniProt P15941 1182-1255)
